This passage reports binding results from article PMC5884512.

Amino acid sequences for entries named in this document (tags omitted). A change or cut given only in a name is not applied to a line headed by its entry.
UniProt Q16651: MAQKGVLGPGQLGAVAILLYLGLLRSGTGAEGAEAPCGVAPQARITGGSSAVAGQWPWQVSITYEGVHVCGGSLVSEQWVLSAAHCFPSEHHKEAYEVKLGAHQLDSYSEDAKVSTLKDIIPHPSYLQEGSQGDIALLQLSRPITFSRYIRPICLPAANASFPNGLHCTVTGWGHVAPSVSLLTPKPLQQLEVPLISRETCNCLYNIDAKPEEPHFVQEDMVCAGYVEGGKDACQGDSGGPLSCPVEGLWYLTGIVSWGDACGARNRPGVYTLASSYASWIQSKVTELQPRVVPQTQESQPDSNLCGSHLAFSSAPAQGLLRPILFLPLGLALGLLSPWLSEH

These are yes or no findings as the source states them, for the method shown.

This assay addresses S238A human prostasin converted into the double-chain form by matriptase (human) (UniProt Q16651). The assay can be described thus: SDS-stable complex formation detected by Western blot; 100 ng prostasin zymogen or matriptase-activated prostasin (10 nM matriptase serine protease domain, 20 min, 37°C) in 50 mM Tris/HCl pH 8.0, 100 mM NaCl incubated with 200 ng PN-1, HAI-1 or HAI-2 for 30 min at room temperature; reduced/non-boiled samples; anti-prostasin Western blot.

B1: recombinant human serpin E2/PN-1 (protease nexin-1) (protein, UniProt P07093 20-398)
chain: SHFNPLSLEELGSNTGIQVFNQIVKSRPHDNIVISPHGIASVLGMLQLGADGRTKKQLAMVMRYGVNGVGKILKKINKAIVSKKNKDIVTVANAVFVKNASEIEVPFVTRNKDVFQCEVRNVNFEDPASACDSINAWVKNETRDMIDNLLSPDLIDGVLTRLVLVNAVYFKGLWKSRFQPENTKKRTFVAADGKSYQVPMLAQLSVFRCGSTSAPNDLWYNFIELPYHGESISMLIALPTESSTPLSAIIPHISTKTIDSWMSIMVPKRVQVILPKFTAVAQTDLKEPLKVLGITDMFDSSKANFAKITTGSENLHVSHILQKAKIEVSEDGTKASAATTAILIARSSPPWFIVDRPFLFFIRHNPTGAVLFMGQINKP
For B1, the binding result is “no binding (tested: 200 ng PN-1 with 100 ng prostasin)”.
